Test results from PubChem BioAssay AID2685 (National Center for Advancing Translational Sciences (NCATS), 2010).
The other results are listed elsewhere or left out. Shown are side measurements of this screen, not its main read-out; they come without a call. The list favours compounds with an active or inconclusive main result. Words in brackets tell the shape of the fitted curve; partial curves, single points and poor fits give uncertain potencies.

Assay: qHTS Assay for Lipid Storage Modulators in Drosophila S3 Cells;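 as to cell number change: cells counted by Cell Tracker Red CMTPX staining in the red channel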
Conditions: BODIPY lipid droplet fluorescence, 18-24 h; for cell number change: measured here: cell count max response, cells fed with added oleic acid
Summary of the method: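 Laser-scanning cytometry quantifies lipid droplet accumulation (500–530 nm total intensity; droplet/cell object ratio) in oleic acid-fed (400 uM added) Drosophila S3 cells treated with a concentration series. 20 uM Triacsin C defined 100% inhibition.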

[1] = measured here: cell number channel AC50, cells fed with added oleic acid
[2] = measured here: lipid fluorescence (Fed channel) AC50, cells fed with added oleic acid

| Structure (SMILES) | cell number change [%] | AC50 [1] | AC50 [2] |
| --- | --- | --- | --- |
| CCOc1ccccc1-n1c(CNc2ccc(F)cc2)nnc1SCC(=O)NCc1ccco1 | -32.6 | 13 µM [falling, partial curve] |  |
| COc1ccc(-n2c(-c3ccc(Cl)cc3)c[n+]3c2CCc2ccccc2-3)cc1 | -71.2 | 29.1 µM [falling, single point] | 29.1 µM [falling, single point] |
| O=C(NCc1ccccc1)C1=C[C@H](c2coc3ccccc3c2=O)C[C@H](OCc2ccc(CO)cc2)O1 | -19.4 |  |  |
| Cc1nonc1NC(=O)OCCN1CCOC1=O | 18.1 |  | 29.1 µM [rising, single point] |
| O=C1CN(C(=O)COC(=O)c2ccccc2NC(=O)c2ccco2)c2ccccc2N1 |  |  | 18.4 µM [rising, partial curve] |
| CCOC(=O)[C@H]1[C@H]2COc3cc(OC)ccc3[C@@H]2N2C(=O)c3cc(F)c(F)cc3NC(=O)[C@@]12C |  |  | 0.731 µM [falling, partial curve, poor fit] |
| CCCCNC(=O)Cn1c(=O)c2c(ncn2CC)n(Cc2ccccc2)c1=O | -58.5 | 0.517 µM [falling, full curve] | 4.61 µM [falling, partial curve] |
| Nc1ncnc2nc(Sc3ccc(Cl)cc3)[nH]c12 | -3.3 |  |  |
| COCc1cc(=O)[nH]c(SCCS(=O)(=O)c2ccc(C)cc2)n1 | 13.6 | 4.11 µM [falling, single point] | 6.51 µM [falling, single point] |
| Nc1cc(S(=O)(=O)Nc2ccc(Cl)cc2)ccc1N1CCOCC1 | -32.4 | 3.26 µM [falling, partial curve] | 29.1 µM [falling, single point] |
| COC(=O)c1ccc(NS(=O)(=O)c2cc3c4c(c2)CCN4C(=O)CC3)cc1 | 9.54 |  | 0.651 µM [rising, partial curve] |
| CN(C)C=NC(=O)c1cc(C(=O)c2ccc(Cl)cc2Cl)c[nH]1 | 0.615 |  |  |
| Oc1ccccc1-c1nc(N2CCCC2)c2ccccc2n1 |  | 1.46 µM [rising, partial curve] | 1.03 µM [rising, full curve] |
| O=C(/C=C/c1ccc(N2CCCCC2)c([N+](=O)[O-])c1)c1ccc(O)cc1 | -31.1 | 4.11 µM [falling, partial curve, poor fit] | 18.4 µM [falling, single point] |
| NC(=O)NOCc1cccc(Cl)c1 | 37.7 | 1.46 µM [rising, partial curve] | 29.1 µM [rising, single point] |
| Cn1c(O)c(N=NC(=O)C2COc3ccccc3O2)c2ccccc21 (stereo unspecified) | 6.78 |  | 29.1 µM [rising, single point] |
| Cc1ccccc1C(=O)Nc1nnc(S(=O)(=O)N(C)Cc2ccco2)s1 | -36.9 | 32.6 µM [falling, single point] | 0.82 µM [falling, full curve, poor fit] |
| O=C(O)c1ccc2cccnc2c1O | 7.13 |  |  |
| NC(=O)c1ccc(NC(=O)COC(=O)c2c3c(nc4ccccc24)/C(=C\c2cccs2)CCC3)cc1 | -73.8 | 2.06 µM [falling, full curve] | 1.3 µM [falling, full curve] |
| O=C(NC1CCCC1)c1cc(-c2ccc(Cl)cc2)on1 | 26.5 |  | 6.51 µM [rising, single point] |

| Structure (SMILES) | cell number change [%] | AC50 [1] | AC50 [2] |
| --- | --- | --- | --- |
| COc1ccc(CC(C)N2CCN(Cc3ccccc3)CC2)c(OC)c1 (stereo unspecified) | -15.2 | 0.326 µM [falling, partial curve] | 0.731 µM [falling, full curve] |
| CCn1cnc2c(Nc3cccc(Cl)c3)nc(C#N)nc21 | -24.9 |  |  |
| COc1ccc(OC(=O)Cc2cccc3ccccc23)cc1 | -7.69 |  | 16.4 µM [rising, partial curve] |
| O=C(N/N=C/c1ccc([N+](=O)[O-])o1)C1CCCC1 | -26.1 |  | 29.1 µM [falling, single point] |
| COC(=O)C(C#N)C(c1cccnc1)c1c(C)[nH][nH]c1=O (stereo unspecified) | 6.42 |  | 3.66 µM [falling, single point] |
| COC(=O)c1c(N=CN(C)C)c(C#N)c2n1CCCC2 | 0.834 |  |  |
| O=C(NN1C(=O)/C(=C/C=C/c2ccco2)SC1=S)c1ccccc1O | -7.87 |  | 29.1 µM [falling, single point] |
| O=C(CSc1nc(O)c(Cc2ccccc2)c(=O)[nH]1)Nc1ccccc1 | -30.8 | 5.17 µM [falling, full curve, poor fit] | 0.82 µM [falling, full curve] |
| O=C(CSc1nnc(-c2ccc(Br)cc2)o1)Nc1cccc(C(=O)O)c1 | 5.41 |  | 6.51 µM [falling, single point] |
| O=C(c1cccc(S(=O)(=O)N2CCOCC2)c1)N1CCCc2ccccc21 |  | 0.206 µM [falling, full curve, poor fit] | 0.146 µM [falling, full curve, poor fit] |
| COCCn1c(C)cc(C(=O)CN2C(=O)NC3(CCCCCC3)C2=O)c1C | 0.721 |  | 6.51 µM [rising, single point] |
| CCN1CCN(C(=O)c2cc(S(=O)(=O)Nc3ccc(S(C)(=O)=O)cc3)ccc2Cl)CC1 | -108 |  |  |
| Cc1noc(C)c1CSCC(=O)OCc1nc2ccccc2c(=O)n1CC#N | -8.2 |  | 18.4 µM [rising, single point] |
| CC1CCc2c(C(=O)Nc3ccc(OC(F)(F)F)cc3)csc2C1 (stereo unspecified) | 5.71 |  | 3.66 µM [rising, single point] |
| CCCCN(CC)Cc1ccc(CNC(=S)Nc2c(C)cc(C)cc2C)o1 | -3.29 |  | 3.66 µM [falling, single point] |
| O=C(O)C1CC=CCC1C(=O)NC12CC3CC(CC(C3)C1)C2 (stereo unspecified) | -12.8 |  | 29.1 µM [falling, partial curve, poor fit] |
| N/C(=N\OS(=O)(=O)c1ccc2ccccc2c1)c1ccccn1 |  | 0.116 µM [falling, full curve, poor fit] |  |
| CCN(C(=O)CSc1ncccc1C(=O)Oc1cccc([N+](=O)[O-])c1)c1cccc(C)c1 | -9.22 |  |  |
| COc1ccc(CCNC(=O)c2cc(S(=O)(=O)N3CCCCCC3)ccc2OC)cc1OC | -21.4 |  | 29.1 µM [falling, single point] |
| Cc1cc(=O)[nH]c(SC/C=C/c2ccccc2)n1 |  | 2.91 µM [falling, partial curve, poor fit] | 4.61 µM [falling, partial curve] |

| Structure (SMILES) | cell number change [%] | AC50 [1] | AC50 [2] |
| --- | --- | --- | --- |
| COc1cc(OC)nc(Oc2ccc(NC(C)=O)cc2)n1 | 10.6 |  | 1.46 µM [rising, partial curve, poor fit] |
| COc1ccc2cc(C(=O)N3CCN(Cc4ccc5c(c4)OCO5)CC3)[nH]c2c1 | -4.53 |  | 29.1 µM [rising, single point] |
| CC(=O)N1CCN(CC(=O)Nc2c(Cl)ccc(C)c2Cl)CC1 | -6.17 |  |  |
| O=C(c1ccc(S(=O)(=O)N2CCCC2)cc1)N1CCN(S(=O)(=O)c2cccc(F)c2)CC1 | 8.33 |  |  |
| COc1ccc(CN2CCC(n3nccc3NC(=O)c3ccc4c(c3)OCO4)CC2)cc1C | -9.73 |  | 6.51 µM [rising, single point] |
| COC(=O)c1oc2ccccc2c1NC(=O)/C=C/C(=O)O | 11.4 | 0.651 µM [falling, single point] |  |
| CCCCC1CCC(C(=O)N(CC(C)C)c2c(N)n(CCCC)c(=O)[nH]c2=O)CC1 (stereo unspecified) | 7.92 | 0.651 µM [falling, single point] |  |
| O=C(c1ccccc1Br)N1CCN(c2ncccn2)CC1 | 44 | 29.1 µM [rising, single point] | 6.51 µM [rising, partial curve, poor fit] |
| O=C(CN(C(=O)CCC(=O)Nc1nccs1)c1ccc(F)c(Cl)c1)NCc1ccco1 | 41.9 | 1.64 µM [rising, partial curve] | 20.6 µM [falling, single point] |
| COc1cccc(CN2CCCC(C(=O)Nc3ccc(-c4cscn4)cc3)C2)c1 (stereo unspecified) | 19.4 |  | 1.84 µM [rising, partial curve] |
| C=CCCCCCCCCC(=O)Nc1ncccn1 | -23.5 |  | 36.6 µM [falling, partial curve, poor fit] |
| CCC1(C)Cc2ccccc2C(=S)N1 (stereo unspecified) |  | 2.31 µM [falling, partial curve] | 5.17 µM [falling, single point] |
| Cc1ccc(CC(=O)N2CCN(C(=O)c3ccco3)CC2)cc1 | 18.4 |  | 29.1 µM [rising, single point] |
| CC(C(=O)N(C)CC(=O)Nc1ccccc1C(F)(F)F)N1C(=O)c2ccccc2C1=O (stereo unspecified) | -3.03 |  | 11.6 µM [rising, partial curve] |
| CC(CCN1CCN(c2ccccn2)CC1)c1ccccc1 (stereo unspecified) | 7.94 |  | 0.092 µM [rising, full curve, poor fit] |
| COc1cccc(CN2CCCC(CNC(=O)c3ccc(F)cc3)C2)c1OC (stereo unspecified) | 12.1 |  |  |
| c1cncc(-c2nnc(-c3cccs3)o2)c1 | -12.5 | 0.58 µM [rising, full curve] |  |
| COc1cc(C(c2c(C)[nH][nH]c2=O)c2c(C)[nH][nH]c2=O)cc(Cl)c1O | -19.1 |  | 29.1 µM [falling, single point] |
| COc1nc(C)nc2c1sc1nc3c(cc12)COC(C)(C)C3 |  | 6.51 µM [rising, single point] | 29.1 µM [falling, single point] |

Of the compounds above, 5 contain two or more sulfur atoms.

| Structure (SMILES) | cell number change [%] | AC50 [1] | AC50 [2] |
| --- | --- | --- | --- |
| COCc1cc(=O)[nH]c(SCCS(=O)(=O)c2ccc(C)cc2)n1 | 13.6 | 4.11 µM [falling, single point] | 6.51 µM [falling, single point] |
| Cc1ccccc1C(=O)Nc1nnc(S(=O)(=O)N(C)Cc2ccco2)s1 | -36.9 | 32.6 µM [falling, single point] | 0.82 µM [falling, full curve, poor fit] |
| O=C(NN1C(=O)/C(=C/C=C/c2ccco2)SC1=S)c1ccccc1O | -7.87 |  | 29.1 µM [falling, single point] |
| CCN1CCN(C(=O)c2cc(S(=O)(=O)Nc3ccc(S(C)(=O)=O)cc3)ccc2Cl)CC1 | -108 |  |  |
| O=C(c1ccc(S(=O)(=O)N2CCCC2)cc1)N1CCN(S(=O)(=O)c2cccc(F)c2)CC1 | 8.33 |  |  |
